From patent US8859512B2, “Anti-viral pyrimidine nucleoside derivatives” (University College Cardiff Consultants Limited, priority 2006, dated 2014)
The name of at least one read-out is uncertain.

Assay: Pilot oral pharmacokinetic study in female mice, plasma Compound 1 by HPLC with fluorescence detection
Assay type: in vivo
Conditions: mouse model

For `CCCCCc1ccc(-c2cc3cn(C4CC(O)C(COC(=O)C(N)C(C)C)O4)c(=O)nc3o2)cc1` (stereo not shown) [Compound 5], the “bioavailability compared to Compound 1 (in words)” value was “improved bioavailability”.
